Reference: patent US8153784B2, “Imaging of enzyme activity” (The General Hospital Corporation, priority 2004, dated 2012)
At least one structure is not confirmed: it was looked up by name or label, or the drawing left a doubt. Some of these results come from one statement about several compounds together.

Amino acid sequences for entries named in this document (tags omitted). Residues count along the entry.
UniProt P05164, 279-745 limits assumed: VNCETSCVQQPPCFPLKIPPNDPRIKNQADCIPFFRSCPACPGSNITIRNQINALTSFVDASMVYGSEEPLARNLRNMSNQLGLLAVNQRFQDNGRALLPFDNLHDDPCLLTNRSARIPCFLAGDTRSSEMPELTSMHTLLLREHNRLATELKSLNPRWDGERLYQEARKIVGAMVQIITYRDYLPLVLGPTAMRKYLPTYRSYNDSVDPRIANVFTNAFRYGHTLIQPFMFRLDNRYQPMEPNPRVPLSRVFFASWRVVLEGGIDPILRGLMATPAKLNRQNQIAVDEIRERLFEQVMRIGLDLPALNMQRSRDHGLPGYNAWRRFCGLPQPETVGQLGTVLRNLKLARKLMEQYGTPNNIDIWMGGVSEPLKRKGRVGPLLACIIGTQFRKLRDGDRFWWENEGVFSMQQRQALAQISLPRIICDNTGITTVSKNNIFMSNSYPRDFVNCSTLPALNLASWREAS
UniProt P05164, 165-273 limits assumed: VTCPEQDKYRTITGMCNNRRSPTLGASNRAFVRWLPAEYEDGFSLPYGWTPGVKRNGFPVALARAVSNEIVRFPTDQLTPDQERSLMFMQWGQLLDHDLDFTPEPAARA

Legend:
[1] = biological target: T1, endogenous mouse MPO (Mus musculus, UniProt P11247); assay: LPS induced myositis, MR imaging at 4.7 T; format: in vivo; conditions: mice with myositis
T1 construct: endogenous in cells; host or cells: inflammatory cells recruited by LPS in C57BL6 male mice (Matrigel site in the thigh, or flank muscle myositis)
T1 sequence (P11247 139-718): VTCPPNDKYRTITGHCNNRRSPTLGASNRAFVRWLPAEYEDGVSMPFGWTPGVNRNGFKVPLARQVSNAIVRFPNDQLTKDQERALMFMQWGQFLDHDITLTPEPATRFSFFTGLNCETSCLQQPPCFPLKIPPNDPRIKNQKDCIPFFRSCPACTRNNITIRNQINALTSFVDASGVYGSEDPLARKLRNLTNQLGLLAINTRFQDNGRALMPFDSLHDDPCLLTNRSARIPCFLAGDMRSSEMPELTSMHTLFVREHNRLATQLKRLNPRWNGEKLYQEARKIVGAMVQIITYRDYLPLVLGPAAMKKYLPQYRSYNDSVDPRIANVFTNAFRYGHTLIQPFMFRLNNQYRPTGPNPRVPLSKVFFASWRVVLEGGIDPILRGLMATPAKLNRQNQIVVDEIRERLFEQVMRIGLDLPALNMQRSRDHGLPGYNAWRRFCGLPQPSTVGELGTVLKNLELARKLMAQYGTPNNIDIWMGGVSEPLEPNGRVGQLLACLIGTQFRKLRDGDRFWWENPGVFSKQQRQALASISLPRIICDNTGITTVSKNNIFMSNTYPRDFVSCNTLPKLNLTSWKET
Description: The MR imaging experiments were performed on a 1.5 T GE Excite scanner and a 4.7 T Bruker Pharmascan scanner. For all MR imaging experiments, precontrast T2-(TR=2000, TE=100, ETL=8, NEX=4, fast spin echo sequence) and T1-weighted images (TR=500, TE=11, NEX=4, spin echo sequence) with fat saturation were initially performed to locate the gels or area of inflammation. The substrates (0.3 mmol/kg) were subsequently injected via the tail vein of the mouse. The mouse was immediately imaged after the injection of the contrast agent using multiple T1-weighted sequences with fat saturation for at least 3 hours.
Ten-week old C57BL6 male mice were obtained from Jackson Laboratories. A total of 22 mice were used for the study. • 1. MPO/Matrigel imaging experiments: Matrigel™ (Beckton-Dickinson), a […] basement membrane matrix gel was used to immobilize human MPO and glucose oxidase (to supply H2O2 required for detecting MPO oxidative activity, Calbiochem). This was chosen to reflect deposits of human MPO in inflamed tissue in a mouse model. 400 μL of a mixture of Matrigel™ and MEM (Cambrex) was injected slowly into the thighs of each mouse one hour prior to imaging. The right thigh mixture also contained 15 U of MPO and 4 U of glucose oxidase (Calbiochem), while the left thigh mixture contained no enzyme and thus serves as an internal control. […]

[2] = biological target: T2, human myeloperoxidase (MPO) (Homo sapiens, UniProt P05164); assay: Pseudo-first-order rate constants of MPO-mediated conversion (relaxation times over time, 0.47 T); format: biochemical; conditions: from T1 measurements, mean±SD
T2 construct: purchased BioDesign Inc
Description: (§1) Kinetics of the samples were observed by measuring T1 and T2 at 0.47 T and 40° C. of the samples over at least a 24 hour period. At different time points, 1 M of sodium azide (final concentration=0.17 M) was added to stop the enzyme mediated reaction. The resultant progress curve was fitted with an empirical mathematical model and analyzed according to the Guggenheim method to obtain the pseudo-first-order rate constants (Guggenheim E A. Philos. Mag. 1926; 2:538).
(§2) An important property of a suitable substrate for an enzyme is the kinetics of enzymatic reaction. To determine the utility of the paramagnetic complexes as suitable substrates for human myeloperoxidase (MPO), we measured the pseudo-first-order rate constant of these substrates in MPO, and compared to the same substrates' reactions in Horse Radish Peroxidase (HRP) by monitoring the changes in relaxation time over time. […] The results shown were obtained using T1 measurements. T2 measurements yielded nearly identical results. The results are presented as mean±SD. N/A=not applicable.

[3] = biological target: T3, horseradish peroxidase (HRP) (Armoracia rusticana, UniProt P00433); assay: Pseudo-first-order rate constants of HRP-mediated conversion (relaxation times over time, 0.47 T); format: biochemical, horseradish; parameters: purchased Sigma-Aldrich type XII (catalogue number not given); conditions: from T1 measurements, mean±SD
T3 sequence (P00433 31-338): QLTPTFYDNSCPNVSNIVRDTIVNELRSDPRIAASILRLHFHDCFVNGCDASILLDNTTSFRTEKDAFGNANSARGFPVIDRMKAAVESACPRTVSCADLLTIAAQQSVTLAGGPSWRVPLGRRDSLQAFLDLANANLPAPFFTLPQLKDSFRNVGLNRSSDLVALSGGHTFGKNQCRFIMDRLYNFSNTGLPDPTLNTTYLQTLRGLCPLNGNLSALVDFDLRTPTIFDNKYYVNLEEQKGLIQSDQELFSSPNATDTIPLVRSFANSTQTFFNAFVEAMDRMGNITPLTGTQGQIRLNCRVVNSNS
Description: as §1, §2

| Structure (SMILES) | persistence of enhancement after injection [1] | Pseudo first-order rate constant [2] | Pseudo first-order rate constant [3] | Pseudo first-order rate constant ([3]; listed as Tyramide-DOTA(Gd)) |
| --- | --- | --- | --- | --- |
| CC(C(=O)NCC(=O)NCCc1c[nH]c2ccc(O)cc12)N1CCN(CC(=O)[O-])CCN(CC(=O)[O-])CCN(CC(=O)[O-])CC1.[Gd+3] (stereo not drawn) [5-HT-DOTA(Gd), Glycylmethyl DOTA(Gd) 5-Hydroxytryptamide] | more than 50 minutes | 6.3 × 10^−3s^−1 ± 1.3 × 10^−4s^−1 | 1.0 × 10^−2s^−1 ± 3.8 × 10^−4s^−1 |  |
| CC(C(=O)NCC(=O)NCCc1ccc(O)c(O)c1)N1CCN(CC(=O)[O-])CCN(CC(=O)[O-])CCN(CC(=O)[O-])CC1.[Gd+3] (stereo not drawn) [hydroxytyramide-DOTA(Gd), Glycylmethyl DOTA(Gd) Hydroxytyramide] |  |  | 7.3 × 10^−4s^−1 ± 1.2 × 10^−6s^−1 |  |
| CC(C(=O)NCC(=O)NCCc1ccc(O)cc1)N1CCN(CC(=O)[O-])CCN(CC(=O)[O-])CCN(CC(=O)[O-])CC1.[Gd+3] (stereo not drawn) [tyramide-DOTA(Gd), Glycylmethyl DOTA(Gd) Tyramide] |  | 8.1 × 10^−4s^−1 ± 1.5 × 10^−6s^−1 |  | 9.5 × 10^−3s^−1 ± 2.5 × 10^−4s^−1 |
